Laboratory results: PubChem BioAssay AID1224830 (NIAID, 2016)
Here is an unselected part of about 18,000 deposited reagents. Of all reagents, about 2,900 (16%) are marked active. 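Calls are made per well; low scores hint the gene aids the LPS response, high scores that it dampens it.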 Entries without a mark were called inactive. Repeated entries: four replicate wells of each siRNA pool.

Test: 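Genes whose knock-down alters the TNF-alpha reporter response to LPS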 (primary screen)
System: human THP-1 monocytic leukaemia cells, TNF dual-luciferase reporter clone, PMA-differentiated to macrophage-like cells
Knock-down reagent: siRNA pool against human genes, 50 nM
Time to read-out: LPS for 4 h, given about 3 days after siRNA transfection
Treatment: bacterial LPS (TLR4 ligand), 10 ng/ml
Detection: 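Ratio of firefly to renilla light, scaled to the plate median and expressed as a robust z-score per replicate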
Scale: TNF reporter robust z-score: higher = stronger TNF reporter response to LPS
Rule for the call: 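Each well counts as active if its z-score is over 2.8 or under -1.5; controls are left without a call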

no.	gene	TNF reporter robust z-score
1	PSMD8 (GeneID 5714)	-1.88 (active)
2	PSMD8 (GeneID 5714)	-1.72 (active)
3	PSMD8 (GeneID 5714)	-1.98 (active)
4	PSMD8 (GeneID 5714)	-1.84 (active)
5	PRSS23 (GeneID 11098)	5.92 (active)
6	PRSS23 (GeneID 11098)	2.99 (active)
7	PRSS23 (GeneID 11098)	2.32
8	PRSS23 (GeneID 11098)	1.92
9	CCDC92 (GeneID 80212)	4.85 (active)
10	CCDC92 (GeneID 80212)	4.37 (active)
11	CCDC92 (GeneID 80212)	3.75 (active)
12	CCDC92 (GeneID 80212)	3.53 (active)
13	OR4X1 (GeneID 390113)	-0.21
14	OR4X1 (GeneID 390113)	-0.31
15	OR4X1 (GeneID 390113)	-0.17
16	OR4X1 (GeneID 390113)	-0.44

A stretch from the list above:
no.	gene	TNF reporter robust z-score
3	PSMD8 (GeneID 5714)	-1.98 (active)
4	PSMD8 (GeneID 5714)	-1.84 (active)
5	PRSS23 (GeneID 11098)	5.92 (active)
6	PRSS23 (GeneID 11098)	2.99 (active)
7	PRSS23 (GeneID 11098)	2.32
8	PRSS23 (GeneID 11098)	1.92
9	CCDC92 (GeneID 80212)	4.85 (active)

Next reagents follow:
no.	gene	TNF reporter robust z-score
17	POT1 (GeneID 25913)	-0.57
18	POT1 (GeneID 25913)	-0.37
19	POT1 (GeneID 25913)	-0.5
20	POT1 (GeneID 25913)	-0.51
21	GRIK4 (GeneID 2900)	-0.12
22	GRIK4 (GeneID 2900)	0.48
23	GRIK4 (GeneID 2900)	0.99
24	GRIK4 (GeneID 2900)	1.14
25	PEBP1 (GeneID 5037)	-0.76
26	PEBP1 (GeneID 5037)	-0.85
27	PEBP1 (GeneID 5037)	-1.78 (active)
28	PEBP1 (GeneID 5037)	-0.99
29	PCDHB5 (GeneID 26167)	0.7
30	PCDHB5 (GeneID 26167)	1.69
31	PCDHB5 (GeneID 26167)	0.99
32	PCDHB5 (GeneID 26167)	0.8
33	MPST (GeneID 4357)	1.51
34	MPST (GeneID 4357)	1.26
35	MPST (GeneID 4357)	0.81
36	MPST (GeneID 4357)	0.29
37	IFNL3 (GeneID 282617)	-0.39
38	IFNL3 (GeneID 282617)	0.3
39	IFNL3 (GeneID 282617)	0.14
40	IFNL3 (GeneID 282617)	-0.35
41	ABHD17C (GeneID 58489)	-0.7
42	ABHD17C (GeneID 58489)	0.2
43	ABHD17C (GeneID 58489)	-0.04
44	ABHD17C (GeneID 58489)	-0.77
45	PMEL (GeneID 6490)	-0.25
46	PMEL (GeneID 6490)	1.23
47	PMEL (GeneID 6490)	-0.26
48	PMEL (GeneID 6490)	0.19
